This note sets out measurements from publication PMC7819943, “Rice protein-binding microarrays: a tool to detect cis-acting elements near promoter regions in rice”.

The list shows a part of the results.

This experiment concerns the target T1, OsSMF1 (Oryza sativa, UniProt Q6ZLB0 1-436).
T1 sequence: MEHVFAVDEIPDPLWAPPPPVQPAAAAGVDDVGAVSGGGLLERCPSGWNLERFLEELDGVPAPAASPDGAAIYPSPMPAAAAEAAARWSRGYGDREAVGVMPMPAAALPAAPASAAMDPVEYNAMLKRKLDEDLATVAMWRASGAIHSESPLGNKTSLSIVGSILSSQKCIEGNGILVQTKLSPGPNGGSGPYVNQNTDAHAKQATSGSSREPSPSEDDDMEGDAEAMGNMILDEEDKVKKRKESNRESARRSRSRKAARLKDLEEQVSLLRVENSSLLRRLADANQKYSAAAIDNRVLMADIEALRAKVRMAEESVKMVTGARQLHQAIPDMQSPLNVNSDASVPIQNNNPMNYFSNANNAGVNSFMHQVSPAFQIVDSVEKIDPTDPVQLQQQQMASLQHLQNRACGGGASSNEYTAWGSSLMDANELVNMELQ
In words: protein-binding microarray (RPBM); PBS, 2% BSA, 51.3 ng/ul salmon testes DNA, 50 uM zinc acetate, 200 nM TF, 25 C, 1 h; high values mean tight binding. To be noted: protein: recombinant; tags: N-terminal polyhistidine and DsRed monomer fusion (pET32a); chain copies: 2; label: CyDye5-dUTP incorporated in the synthesized complementary strand; 3' TTTTT single-stranded linker to array surface; dsDNA, one strand shown. In a few lines: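 Transcription factors were made in E. coli BL21-CodonPlus as N-terminal fusions to a polyhistidine tag and DsRed, then purified on Ni–NTA. After primer extension with Cy5-dUTP and blocking with 2% BSA, a custom Agilent array was exposed for 1 h at 25 °C to 200 nM protein in PBS, 2% BSA, salmon testes DNA and 50 µM zinc acetate. Washed arrays were scanned on an Axon 4000B, and the binding signal is per-feature fluorescence intensity in arbitrary units.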
Take “CAGTAAGCTAGCAAACAAACACACAAGAATATTTGTGATCCGGAGTCACCTAGTGCAG”: the binding signal is 39900 fluorescence intensity (a.u.).
In the case of “GCTTTCAAAGCACTCAATTTTCCAGGTCATAACTGTTTTCCGGAGTCACCTAGTGCAG” it was 5050 fluorescence intensity (a.u.); in that of “CGTGCTCACGAAACCCGATCGATCGGTGATCTGCACCGTCCGGAGTCACCTAGTGCAG”, 45200 fluorescence intensity (a.u.); in that of “GCAGGTCCTCCATCAACGTCGCCGTACGTGTTCCGCCGGCCGGAGTCACCTAGTGCAG”, 4140 fluorescence intensity (a.u.).
Take “CATCTGACGGCGCATGCATGGCGAGGGACTGTAGTACTGTCGGAGTCACCTAGTGCAG”: the binding signal was 3250 fluorescence intensity (a.u.).
For the sequence “CTGGTCGGCGCGGGCACGCGCTTGCGGAGGCTGGGGAGTCCGGAGTCACCTAGTGCAG”, the binding signal was 39700 fluorescence intensity (a.u.).
On to “TAAAGGTGTAATCCCAAATTTCTTCTCGTCATCCGAACATCGGAGTCACCTAGTGCAG”, for which the binding signal was 3400 fluorescence intensity (a.u.).
As for “ATCCAAGCCGTCCATCTTCACCCGTCACTGTCACTCGCCACGGAGTCACCTAGTGCAG”, the binding signal is 3510 fluorescence intensity (a.u.).
In the case of “ATCAGCTTACGTTGGCATGTGTTCCCCACCGAATGAAACGCGGAGTCACCTAGTGCAG” it was 3520 fluorescence intensity (a.u.).
In the case of “CTCCCCACTAGTGTGACTGTGTGAGTGGTTGTACTCTGTACGGAGTCACCTAGTGCAG” it was 3410 fluorescence intensity (a.u.); in that of “TCCTTAAATTTGTAGGGTTGTGTCATATAGGTCCCTAAACCGGAGTCACCTAGTGCAG”, 4150 fluorescence intensity (a.u.).
In the case of “GTGTGTGGCAGTAGCAGCCAGATCTCGGCCCCGGCCCCGGCGGAGTCACCTAGTGCAG” it was 16100 fluorescence intensity (a.u.).
Take “GAACACCATACACGTCCGGCTTCTCATGCGTCCACCGCTGCGGAGTCACCTAGTGCAG”: the binding signal was 22700 fluorescence intensity (a.u.).
Consider “CAATCGCACGCGGTACACAACTAGTCGTTAATTAGCAATTCGGAGTCACCTAGTGCAG”, for which the binding signal is 15300 fluorescence intensity (a.u.).
As for “CGCTAACATGACATGGTATGGTGACGCTTAGGTGTCAGCACGGAGTCACCTAGTGCAG”, the binding signal was 9460 fluorescence intensity (a.u.).
In the case of “GCCAACAAGGAAGCGATGGAGACACGGCAACCCAGGAGCCCGGAGTCACCTAGTGCAG” it was 3570 fluorescence intensity (a.u.); in that of “GGCCGCACCACCATTCCACCCGTCCACCTCGTTGCCTCCGCGGAGTCACCTAGTGCAG”, 3140 fluorescence intensity (a.u.); in that of “AGTCACTCAAAGAATGCCAAGGAGGAAACTGAGAAAATGTCGGAGTCACCTAGTGCAG”, 23700 fluorescence intensity (a.u.).
As for “CCCATAGGCTGGACTCTCTCTCTTTCTCCTACTCCTCCTGCGGAGTCACCTAGTGCAG”, the binding signal was 3200 fluorescence intensity (a.u.).
In the case of “TCACTTCACAGATTCACACACACACACACACACACTCTCTCGGAGTCACCTAGTGCAG” it was 3410 fluorescence intensity (a.u.); in that of “CTTTAGGTGTTGCGGTCATACTTGTCAACTTGTCACAAAACGGAGTCACCTAGTGCAG”, 3560 fluorescence intensity (a.u.).
Turning to “GCCGCGACGTGACGTGACGTCACGCATTTGTCACTTTCTCCGGAGTCACCTAGTGCAG”, the binding signal is 9380 fluorescence intensity (a.u.).
Turning to “CCATTGTGCCCCGCCCACTGACTCACTGGCCCCACCCACACGGAGTCACCTAGTGCAG”, the binding signal is 5400 fluorescence intensity (a.u.).
The same measure for “GCTTCCTGATAGAAATCGCAGATGACACTGTGCCCAAACGCGGAGTCACCTAGTGCAG”: 4010 fluorescence intensity (a.u.); for “TACATATACAAATCCTAGAACTTGTCATAGTGTGTTATCTCGGAGTCACCTAGTGCAG”: 15900 fluorescence intensity (a.u.); for “TCAATAACCGCGATAAAAGCTAGGTAGCTGACGTGGCACACGGAGTCACCTAGTGCAG”: 22300 fluorescence intensity (a.u.).
The same measure for “TTAGTATGTGATTAATTTAGTATTAATTATTTAACTATAACGGAGTCACCTAGTGCAG”: 31900 fluorescence intensity (a.u.).
The same measure for “TTGCTTTTGAATAAGTGATTCTCATGATATGACGTGTTTGCGGAGTCACCTAGTGCAG”: 12100 fluorescence intensity (a.u.); for “AATCCTTAATGCGCCTGGAATTGTTGCACTCAAGTAAAGCCGGAGTCACCTAGTGCAG”: 12300 fluorescence intensity (a.u.); for “CAAACCTGACCCTAGTTACCTATTTCTGACGCACATGATTCGGAGTCACCTAGTGCAG”: 3290 fluorescence intensity (a.u.).
For the sequence “GATCGTAGGATGTGGTGTCATGTATAGTAGCCAACCCGGCCGGAGTCACCTAGTGCAG”, the binding signal was 3530 fluorescence intensity (a.u.).
The same measure for “GAGAATAGTAGCGCCACGCCAACCGCCAAGCCTATGCTTTCGGAGTCACCTAGTGCAG”: 5560 fluorescence intensity (a.u.).
The same measure for “CACCCAAGAACCGGTGGTATTCTTTGGACACGAGAACTTTCGGAGTCACCTAGTGCAG”: 39100 fluorescence intensity (a.u.).
Regarding “AAATTGAGTTGAAAATTTTCAAATCTCGACTTGAAAGTTTCGGAGTCACCTAGTGCAG”, the binding signal is 21800 fluorescence intensity (a.u.).
Turning to “CAAACTGTAGAAATATCAAGCACGTGTTACATAATCCCTGCGGAGTCACCTAGTGCAG”, the binding signal is 4550 fluorescence intensity (a.u.).
“GTACGCACACCAGGCCACCACCAAGAAACGATGGAGAAGGCGGAGTCACCTAGTGCAG”: the binding signal is 3380 fluorescence intensity (a.u.).
In the case of “TTTGATGACAATGTGATGAGATGTCTCCAAAGGAAGCCTACGGAGTCACCTAGTGCAG”, the binding signal is 10400 fluorescence intensity (a.u.).
In the case of “TGGCCAGGTCTAACGCTGACGTATAACGAATTGATCGATCCGGAGTCACCTAGTGCAG” it was 5080 fluorescence intensity (a.u.); in that of “TTTAACCGGTCAACCGTCATCTTTCTCCTTGTGATCCCGTCGGAGTCACCTAGTGCAG”, 4460 fluorescence intensity (a.u.); in that of “ATTACTACCCACATATTGAATATCCACGCGTGCAGCAAGACGGAGTCACCTAGTGCAG”, 3430 fluorescence intensity (a.u.).
The same measure for “GATTTCTTAACTATTTGCCACTTTTGTCTACGTGGCGTGCCGGAGTCACCTAGTGCAG”: 17600 fluorescence intensity (a.u.).
Take “AATATCGTTAAAGGTATATGTGTGTAGGCTTAAAAGGACGCGGAGTCACCTAGTGCAG”: the binding signal is 27100 fluorescence intensity (a.u.).
